The results in this text go back to patent US20220017588A1.

The chains behind the UniProt entries cited, without tags or fusion partners. Residues count along the entry.
UniProt P24394, residues 26-227: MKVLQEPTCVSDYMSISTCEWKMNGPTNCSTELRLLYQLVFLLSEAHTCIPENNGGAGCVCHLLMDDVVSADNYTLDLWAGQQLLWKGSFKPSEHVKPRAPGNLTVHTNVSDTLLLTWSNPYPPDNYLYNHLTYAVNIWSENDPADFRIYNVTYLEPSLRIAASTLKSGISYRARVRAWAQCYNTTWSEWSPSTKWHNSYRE

No constants are given. Whether binding was seen depends on the method and setting. Some results given as binding are weak or reduced against the parent protein; the word gives no strength.

Experiment [1] concerns the target EGFR on engineered K562 cells (UniProt P00533). The experiment is described as follows: flow cytometry on K562 lines; binding to EGFR read from IL-2 receptor recruitment to double positive cells after washing. Background: A flow cytometer gives signals particle by particle.
A further experiment deals with human IL-4Rα (human) (UniProt P24394). The experiment is described as follows: biolayer interferometry (FIG. 21). (In general: BLI is a label-free optical method that tracks binding on a fibre tip over time.)
Experiment [2] deals with Her2 on engineered K562 cells (UniProt P04626). The experiment is described as follows: flow cytometry on K562 lines; binding to Her2 read from IL-2 receptor recruitment after washing.
Experiment [3] has the same target. The experiment can be described thus: flow cytometry on K562 lines; binding to Her2 read from IL-2 receptor recruitment to double positive cells after washing.

B1: Neo2B1-aEGFR (X2-Z1-X3-Z2-X4-E01_EGFR_DARPin) (designed binder)
chain: MGSHHHHHHGSGSENLYFQGSGGGTNSPPAEEKLEDYAFNFELILEEIARLFESGDQKDEAEKAKRMKEWMKRIKTTASEDEQEEMANAIITILQSWIFSGSGGSGGGSGGSGSGGSGGGDLGKKLLEAARAGQDDEVRILMANGADVNADDTWGWTPLHLAAYQGHLEIVEVLLKNGADVNAYDYIGWTPLHLAADGHLEIVEVLLKNGADVNASDYIGDTPLHLAAHNGHLEIVEVLLKHGADVNAQDKFGKTAFDISIDNGNEDLAEILQKLN
For B1, in experiment [1], the binding entry was “binds”.

B2: Neo4A1+Neo4B1 (equimolar combination) (designed binder)
chain 1: PKKKIQIMAEEALKDALSILNIVKTNS
chain 2: TNSPPAEEQLERFAKRFERNLWGIARLFESGDQKDEAEKAKRMIEWMKRIKTTASEDEQEEMANAIITILQSWFFS
Regarding B2, the binding result with human IL-4Rα (human) was “binds”.

B3: Neo2B3-aEGFR (X4-E01_EGFR_DARPin) (designed binder)
chain: MGSHHHHHHGSGSENLYFQGSGGGTTASEDEQEEMANAIITILQSWIFSGSGGSGGGSGGSGSGGSGGGDLGKKLLEAARAGQDDEVRILMANGADVNADDTWGWTPLHLAAYQGHLEIVEVLLKNGADVNAYDYIGWTPLHLAADGHLEIVEVLLKNGADVNASDYIGDTPLHLAAHNGHLEIVEVLLKHGADVNAQDKFGKTAFDISIDNGNEDLAEILQKLN
Consider B3, for which, in experiment [1], the binding result is “binds”.

B4: Neo2B2-aEGFR (X2-Z2-X4-E01_EGFR_DARPin) (designed binder)
chain: MGSHHHHHHGSGSENLYFQGSGGGDQKDEAEKAKRMKEWMKRIKTTASEDEQEEMANAIITILQSWIFSGSGGSGGGSGGSGSGGSGGGDLGKKLLEAARAGQDDEVRILMANGADVNADDTWGWTPLHLAAYQGHLEIVEVLLKNGADVNAYDYIGWTPLHLAADGHLEIVEVLLKNGADVNASDYIGDTPLHLAAHNGHLEIVEVLLKHGADVNAQDKFGKTAFDISIDNGNEDLAEILQKLN
Take B4: in experiment [1], the binding result was “binds”.

B5: aHer2-Neo2A1 (G3_Her2_DARPin_X1) (designed binder)
chain: MGSHHHHHHGSGSENLYFQGSGSGDLGKKLLEAARAGQDDEVRILMANGADVNAKDEYGLTPLYLATAHGHLEIVEVLLKNGADVNAVDAIGFTPLHLAAFIGHLEIAEVLLKHGADVNAQDKFGKTAFDISIGNGNEDLAEILQKLNGSGGSGGGSGGSGSGPKKKIQLHAEHALYDALMILNIVKTNS
Turning to B5, the binding result in experiment [2] is listed as “binds”.

B6: aHer2-Neo2B1 (G3_Her2_DARPin_X2-Z1-X3-Z3-X4) (designed binder)
chain: MGSHHHHHHGSGSENLYFQGSGSGDLGKKLLEAARAGQDDEVRILMANGADVNAKDEYGLTPLYLATAHGHLEIVEVLLKNGADVNAVDAIGFTPLHLAAFIGHLEIAEVLLKHGADVNAQDKFGKTAFDISIGNGNEDLAEILQKLNGSGGSGGGSGGSGSGTNSPPAEEKLEDYAFNFELILEEIARLFESGDQKDEAEKAKRMKEWMKRIKTTASEDEQEEMANAIITILQSWIFS
Take B6: in experiment [2], the binding entry is listed as “binds”.

B7: aHer2-Neo2A2 (G3_Her2_DARPin_X1-Z1-X3) (designed binder)
chain: MGSHHHHHHGSGSENLYFQGSGSGDLGKKLLEAARAGQDDEVRILMANGADVNAKDEYGLTPLYLATAHGHLEIVEVLLKNGADVNAVDAIGFTPLHLAAFIGHLEIAEVLLKHGADVNAQDKFGKTAFDISIGNGNEDLAEILQKLNGSGGSGGGSGGSGSGPKKKIQLHAEHALYDALMILNIVKTNSPPAEEKLEDYAFNFELILEEIARLFESG
As for B7, the binding result in experiment [3] was “binds”.
